Test results: publication PMC6904742
Results are given in words; binding and its absence hold for the method and conditions named. In cells and extracts the contact can be indirect. Some binding calls cover weakened binding; strength is not graded here. For part of these data: Tags and fused reporters may be left off the sequences shown.

Protein sequences, listed by entry. Tags and fused reporters are not part of them.
UniProt Q5SW79: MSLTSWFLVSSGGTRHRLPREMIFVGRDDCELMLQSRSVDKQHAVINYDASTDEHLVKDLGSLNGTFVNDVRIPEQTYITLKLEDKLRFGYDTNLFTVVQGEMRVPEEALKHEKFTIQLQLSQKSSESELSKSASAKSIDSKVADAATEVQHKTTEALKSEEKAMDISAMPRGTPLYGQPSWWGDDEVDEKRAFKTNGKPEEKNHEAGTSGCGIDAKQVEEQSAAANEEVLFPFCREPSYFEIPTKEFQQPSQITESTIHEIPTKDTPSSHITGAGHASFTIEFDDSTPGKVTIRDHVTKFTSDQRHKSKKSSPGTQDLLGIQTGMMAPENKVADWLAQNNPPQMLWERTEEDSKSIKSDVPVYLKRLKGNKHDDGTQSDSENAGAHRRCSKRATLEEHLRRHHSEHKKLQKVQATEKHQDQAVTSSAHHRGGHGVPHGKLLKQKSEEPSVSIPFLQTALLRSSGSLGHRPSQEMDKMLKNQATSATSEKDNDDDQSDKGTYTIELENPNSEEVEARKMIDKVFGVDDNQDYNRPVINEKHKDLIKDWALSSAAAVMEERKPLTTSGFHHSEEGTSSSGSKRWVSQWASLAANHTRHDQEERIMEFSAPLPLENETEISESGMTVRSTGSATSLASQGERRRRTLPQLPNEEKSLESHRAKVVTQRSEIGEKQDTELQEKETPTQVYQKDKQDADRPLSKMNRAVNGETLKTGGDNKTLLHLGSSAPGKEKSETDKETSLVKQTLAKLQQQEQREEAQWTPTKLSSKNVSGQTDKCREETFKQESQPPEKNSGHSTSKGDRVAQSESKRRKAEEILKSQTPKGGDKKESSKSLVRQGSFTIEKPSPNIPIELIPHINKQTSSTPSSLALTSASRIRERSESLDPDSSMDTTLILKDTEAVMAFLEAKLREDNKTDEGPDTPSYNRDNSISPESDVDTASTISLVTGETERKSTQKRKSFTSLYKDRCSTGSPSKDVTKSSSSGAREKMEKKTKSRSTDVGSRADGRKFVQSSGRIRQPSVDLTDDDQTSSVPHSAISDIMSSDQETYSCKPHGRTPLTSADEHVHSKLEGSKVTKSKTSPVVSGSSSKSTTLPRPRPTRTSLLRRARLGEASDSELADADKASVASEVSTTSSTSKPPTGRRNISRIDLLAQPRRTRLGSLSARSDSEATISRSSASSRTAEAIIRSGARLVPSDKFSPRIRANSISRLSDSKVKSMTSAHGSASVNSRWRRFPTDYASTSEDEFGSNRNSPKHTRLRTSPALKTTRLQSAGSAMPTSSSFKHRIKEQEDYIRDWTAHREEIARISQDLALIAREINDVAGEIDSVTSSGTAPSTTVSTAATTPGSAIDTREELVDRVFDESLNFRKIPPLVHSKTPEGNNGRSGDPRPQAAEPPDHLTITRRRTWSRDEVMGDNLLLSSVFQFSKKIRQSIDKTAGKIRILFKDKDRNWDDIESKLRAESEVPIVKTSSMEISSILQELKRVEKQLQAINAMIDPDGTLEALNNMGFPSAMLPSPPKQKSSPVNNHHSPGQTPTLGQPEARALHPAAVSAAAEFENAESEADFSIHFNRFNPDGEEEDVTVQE
UniProt Q8NHV4: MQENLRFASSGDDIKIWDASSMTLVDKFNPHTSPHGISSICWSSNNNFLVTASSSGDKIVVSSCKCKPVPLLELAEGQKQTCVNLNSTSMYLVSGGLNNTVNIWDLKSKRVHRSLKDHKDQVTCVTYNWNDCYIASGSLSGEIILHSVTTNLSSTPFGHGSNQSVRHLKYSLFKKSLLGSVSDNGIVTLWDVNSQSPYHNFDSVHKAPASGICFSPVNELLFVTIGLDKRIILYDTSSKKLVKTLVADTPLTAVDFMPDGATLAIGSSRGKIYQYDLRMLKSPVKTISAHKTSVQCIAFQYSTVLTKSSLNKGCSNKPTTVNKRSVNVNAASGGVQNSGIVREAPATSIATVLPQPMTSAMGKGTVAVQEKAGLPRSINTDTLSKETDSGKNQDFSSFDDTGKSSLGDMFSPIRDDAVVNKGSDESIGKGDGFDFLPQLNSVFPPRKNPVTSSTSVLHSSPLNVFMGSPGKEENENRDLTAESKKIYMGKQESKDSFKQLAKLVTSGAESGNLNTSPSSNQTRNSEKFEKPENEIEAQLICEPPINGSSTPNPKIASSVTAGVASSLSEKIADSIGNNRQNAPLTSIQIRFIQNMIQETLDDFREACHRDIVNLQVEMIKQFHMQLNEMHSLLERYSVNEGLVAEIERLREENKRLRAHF

Key:
Experiment in all cases: pull-down; purified GST fusion proteins incubated with 293T lysate; pull-downs analysed by western blot for B55α; only the target purified
GST-CEP170 = GST-CEP170 (UniProt Q5SW79)
GST-HAUS6 = biological target: T1, GST-HAUS6 (UniProt Q7Z4H7)
T1 sequence: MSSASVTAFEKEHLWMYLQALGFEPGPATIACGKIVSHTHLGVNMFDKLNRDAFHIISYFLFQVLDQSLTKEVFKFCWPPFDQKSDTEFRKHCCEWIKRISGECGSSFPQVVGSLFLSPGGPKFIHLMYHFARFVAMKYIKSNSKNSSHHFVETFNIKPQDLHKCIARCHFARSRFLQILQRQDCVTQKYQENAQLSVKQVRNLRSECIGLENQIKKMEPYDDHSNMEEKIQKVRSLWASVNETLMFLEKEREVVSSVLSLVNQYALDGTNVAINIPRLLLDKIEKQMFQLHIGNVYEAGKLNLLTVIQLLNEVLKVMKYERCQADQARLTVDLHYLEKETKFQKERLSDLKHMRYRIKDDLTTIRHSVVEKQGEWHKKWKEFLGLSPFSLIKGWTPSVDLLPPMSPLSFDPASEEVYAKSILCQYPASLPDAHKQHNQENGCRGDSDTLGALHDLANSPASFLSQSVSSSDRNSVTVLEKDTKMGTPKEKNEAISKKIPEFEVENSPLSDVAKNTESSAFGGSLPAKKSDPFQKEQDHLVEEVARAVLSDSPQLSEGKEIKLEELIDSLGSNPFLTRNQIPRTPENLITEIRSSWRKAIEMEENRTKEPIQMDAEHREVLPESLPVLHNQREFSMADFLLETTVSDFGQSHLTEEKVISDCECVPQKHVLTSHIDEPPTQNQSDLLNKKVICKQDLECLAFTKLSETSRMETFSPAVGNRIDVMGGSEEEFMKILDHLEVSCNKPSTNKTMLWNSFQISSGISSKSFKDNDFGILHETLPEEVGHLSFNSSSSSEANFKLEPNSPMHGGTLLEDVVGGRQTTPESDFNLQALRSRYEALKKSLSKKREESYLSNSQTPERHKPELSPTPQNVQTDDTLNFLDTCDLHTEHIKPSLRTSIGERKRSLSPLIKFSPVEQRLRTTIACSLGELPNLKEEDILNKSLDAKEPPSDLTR

GST-NEDD1 = GST-NEDD1 (UniProt Q8NHV4)

Measured: binding

B1: B55α regulatory subunit of PP2A (protein, UniProt P63151 1-447)
chain: MAGAGGGNDIQWCFSQVKGAVDDDVAEADIISTVEFNHSGELLATGDKGGRVVIFQQEQENKIQSHSRGEYNVYSTFQSHEPEFDYLKSLEIEEKINKIRWLPQKNAAQFLLSTNDKTIKLWKISERDKRPEGYNLKEEDGRYRDPTTVTTLRVPVFRPMDLMVEASPRRIFANAHTYHINSISINSDYETYLSADDLRINLWHLEITDRSFNIVDIKPANMEELTEVITAAEFHPNSCNTFVYSSSKGTIRLCDMRASALCDRHSKLFEEPEDPSNRSFFSEIISSISDVKFSHSGRYMMTRDYLSVKIWDLNMENRPVETYQVHEYLRSKLCSLYENDCIFDKFECCWNGSDSVVMTGSYNNFFRMFDRNTKRDITLEASRENNKPRTVLKPRKVCASGKRKKDEISVDSLDFNKKILHTAWHPKENIIAVATTNNLYIFQDKVN
binds: all assays above
